PubChem BioAssay AID1259282, Sanger Institute, 2017
This is one part, drawn at random, of 794 deposited reagents. 11 of all reagents (1.4%) count as active. 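Calls flag knock-downs that lower viability without drug; drug synergy appears only in the synergy scores; exposure time not stated.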 Further read-outs or replicates are left out here. Not given: the amount of reagent, the time to read-out.

Assay: 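Kinases whose loss reduces viability on their own or with anchor drugs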 (primary screen)
System: DIFI human colorectal cancer cell line
Reagents: siRNA pool against human genes
Treatment: anchor drug at a mild dose (BYL719 1 µM, cetuximab 5 µg/ml, trametinib 10 nM) or DMSO vehicle; exposure time not given
Measured: 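Viability relative to non-targeting pool wells, replicate mean, in DMSO or low-dose BYL719, cetuximab or trametinib; robust z-score without drug; synergy score per drug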
Direction: robust z-score, knock-down alone: higher = more viable cells than typical knock-down
Active means: 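Essential when the robust z-score of the knock-down without drug falls below -3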
Calls: active = essential (knock-down alone, z below -3); inactive = not essential

After knock-down of HK2 [SID56479103], the record shows robust z-score, knock-down alone -3.22; active. Silencing of POMK [SID56479008] resulted in: robust z-score, knock-down alone 0.715; inactive. PFKFB3 [SID135621247] gave robust z-score, knock-down alone -0.169; inactive. ARAF [SID152151166] showed robust z-score, knock-down alone 0.715; inactive. IRAK3 [SID56478864] gave robust z-score, knock-down alone -2.7; inactive. Silencing of PRP4K [SID152152780] resulted in: robust z-score, knock-down alone -0.46; inactive.

Depletion of CSF1R [SID152152485] gave: robust z-score, knock-down alone -2.66; inactive. Knock-down of MOS [SID56478732] came out at: robust z-score, knock-down alone -0.19; inactive. ALPK1 [SID152152286] showed robust z-score, knock-down alone 0.715; inactive. ITPKC [SID56479112] showed robust z-score, knock-down alone 0.0441; inactive. PFKP [SID56479236] showed robust z-score, knock-down alone 0.715; inactive. After knock-down of FXR1 [SID152147249], the record shows robust z-score, knock-down alone 0.715; inactive.

With knock-down of TNK1 [SID152152407] the results were robust z-score, knock-down alone -0.151; inactive. DGUOK [SID152155858] scored robust z-score, knock-down alone -2.68; inactive. PLK3 [SID56478615] showed robust z-score, knock-down alone 0.715; inactive. Against MED12 [SID152147641], the values are robust z-score, knock-down alone 0.637; inactive. TEK [SID152152932] scored robust z-score, knock-down alone 0.715; inactive. Against CDC42BPG [SID135621430], the values are robust z-score, knock-down alone 0.715; inactive.

FER [SID152156672] gave robust z-score, knock-down alone 0.715; inactive.

Entries above whose target name begins with F or f (2):
FXR1 [SID152147249]: robust z-score, knock-down alone = 0.715; Outcome = inactive
FER [SID152156672]: robust z-score, knock-down alone = 0.715; Outcome = inactive
